The results in this text go back to PMC8801937.

Substitutions are numbered along the chain they refer to. No constants are given. Whether binding was seen depends on the method and setting. In cells and extracts the contact can be indirect. Some results given as binding are weak or reduced against the parent protein; the word gives no strength. For part of these data: Tags and fused reporters may be left off the sequences shown.

Assay [1] has as its target T1, Flag-tagged USP36 C131A (catalytically-inactive mutant) (UniProt Q9P275).
T1 sequence: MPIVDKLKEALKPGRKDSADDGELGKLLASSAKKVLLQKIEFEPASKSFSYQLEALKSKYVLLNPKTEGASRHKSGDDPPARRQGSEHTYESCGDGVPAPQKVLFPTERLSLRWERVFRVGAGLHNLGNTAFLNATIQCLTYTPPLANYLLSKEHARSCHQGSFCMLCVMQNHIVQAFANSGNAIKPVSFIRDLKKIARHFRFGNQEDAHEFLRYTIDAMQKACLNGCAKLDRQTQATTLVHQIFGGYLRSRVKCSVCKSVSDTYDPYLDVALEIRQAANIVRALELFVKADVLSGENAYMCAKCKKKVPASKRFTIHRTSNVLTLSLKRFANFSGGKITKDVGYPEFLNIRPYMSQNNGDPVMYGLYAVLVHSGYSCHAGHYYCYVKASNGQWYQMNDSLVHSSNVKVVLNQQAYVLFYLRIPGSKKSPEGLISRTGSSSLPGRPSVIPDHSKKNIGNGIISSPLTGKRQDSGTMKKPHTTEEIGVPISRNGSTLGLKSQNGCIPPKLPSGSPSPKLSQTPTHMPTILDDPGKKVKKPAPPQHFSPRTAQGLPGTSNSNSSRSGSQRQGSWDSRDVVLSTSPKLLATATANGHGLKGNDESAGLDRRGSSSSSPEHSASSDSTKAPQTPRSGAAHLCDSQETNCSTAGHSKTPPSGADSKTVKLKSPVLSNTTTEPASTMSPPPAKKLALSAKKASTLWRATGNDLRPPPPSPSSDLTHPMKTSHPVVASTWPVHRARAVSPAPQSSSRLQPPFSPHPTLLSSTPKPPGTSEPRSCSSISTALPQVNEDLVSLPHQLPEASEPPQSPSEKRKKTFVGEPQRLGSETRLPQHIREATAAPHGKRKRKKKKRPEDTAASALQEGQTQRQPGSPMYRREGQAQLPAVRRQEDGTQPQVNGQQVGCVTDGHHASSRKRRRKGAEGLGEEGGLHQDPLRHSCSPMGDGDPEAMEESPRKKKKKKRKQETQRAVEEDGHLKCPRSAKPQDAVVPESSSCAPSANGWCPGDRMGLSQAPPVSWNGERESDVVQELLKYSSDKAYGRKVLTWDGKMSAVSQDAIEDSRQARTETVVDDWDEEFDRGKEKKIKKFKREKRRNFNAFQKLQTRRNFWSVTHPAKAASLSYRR
In words: co-IP; HEK293T cells co-transfected with His-Snail2 with or without Flag-USP36 WT or C131A; lysed in NETN buffer, precipitated by anti-Flag overnight at 4°C, Western blot.

The target in assay [2] is T2, Flag-tagged USP36 wild type (UniProt Q9P275).
T2 sequence: T1 sequence with A131C
The description is as above.

The target of assay [3] is T3, endogenous USP36 (human (endogenous in U87MG and U251)) (UniProt Q9P275).
T3 sequence: T1 sequence with A131C
In words: co-IP; reciprocal co-immunoprecipitation of the endogenous proteins from U87MG and U251 lysates; NETN buffer, overnight at 4°C, Western blot.

B1: His-tagged Snail2 (protein, UniProt O43623 1-268)
chain: MPRSFLVKKHFNASKKPNYSELDTHTVIISPYLYESYSMPVIPQPEILSSGAYSPITVWTTAAPFHAQLPNGLSPLSGYSSSLGRVSPPPPSDTSSKDHSGSESPISDEEERLQSKLSDPHAIEAEKFQCNLCNKTYSTFSGLAKHKQLHCDAQSRKSFSCKYCDKEYVSLGALKMHIRTHTLPCVCKICGKAFSRPWLLQGHIRTHTGEKPFSCPHCNRAFADRSNLRAHLQTHSDVKKYQCKNCSKTFSRMSLLHKHEESGCCVAH
In the case of B1, the binding entry in assay [1] and in assay [2] was “binds” each time.

B2: endogenous Snail2 (protein, UniProt O43623 1-268)
chain: B1 chain
Consider B2, for which the binding result in assay [3] was “binds”.
